Test results as given in patent publication US20050100903A1, “Screening method” (priority 2001, published 2005).
At least one compound was matched to its structure with a doubt left.

Tested on: CEACAM-1 expression in HT29 cells
Test: Western Blot of CEACAM expression in HT29 colon carcinoma cells
Type: cell-based, human
Conditions: 200 nM, 3, 8 or 24 hours, 1×10^6 cells/well
Procedure: HT29 colon carcinoma cells were incubated for 6 hours with TNF-α (10 ng/ml). The cells were examined microscopically for vitality, then lysed, their total protein isolated and separated electrophoretically. 8 μg protein was separated per lane. An anti-CEA antibody and an anti-mouse-HRP-coupled secondary antibody (Dianova, Hamburg, Germany) were used for detection. A cross-reacting anti-CEA antibody was chosen to investigate the selectivity of candidate substances for the expression of individual antigens. The selectivity of the substance effects is important since CEACAM-1 and CEACAM-7/CEA and CEACAM-6 can have antagonistic effects on apoptosis.
The proportionality of expression of individual CEACAMs can be quantified in Western Blot after densitometric evaluation (e.g., public domain NIH software IMAGE 1.6.1). The antigens are identified in the Western Blot through assignment to relative molar mass. The molecular size of the individual CEACAMs is described in the literature. The Western Blot was normalized with β-actin (Sigma-Aldrich, Taufkirchen, Germany). This blot (FIG. 6) was subsequently evaluated densitometrically using the NIH Image Software 1.6.1.
200 nM wortmannin (Calbiochem-Novabiochem, Nottingham, UK) was incubated with 1×10^6 cells/well (6-well plate) for 3, 8 or 24 hours. […]

SMILES: COC[C@H]1OC(=O)c2coc3c2[C@@]1(C)C1=C(C3=O)[C@@H]2CCC(=O)[C@@]2(C)C[C@H]1OC(C)=O [wortmannin, reference compound]
- Changes in the expression of members of the CEA family: No changes
